The list shows a part of the results. Shown are side measurements of this screen, not its main read-out; they come without a call. Most of these compounds were active or inconclusive in the main read-out, so they are no random draw. The note in brackets gives the kind of curve behind each potency; many fits are weak.
Test: qHTS Assay for Lipid Storage Modulators in Drosophila S3 Cells;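 on cell number change: cells counted by Cell Tracker Red CMTPX staining in the red channel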
Conditions: BODIPY lipid droplet fluorescence, 18-24 h; for cell number change: measured here: cell count max response, cells fed with added oleic acid
Summary of the method: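 Drosophila S3 cells got compounds at several concentrations plus oleic acid (400 uM solution). Laser-scanning cytometry with 488 nm excitation read lipid droplets at 500-530 nm and cells at 575-640 nm. Percent activity was relative to 20 uM Triacsin C.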

[1] = measured here: lipid fluorescence (Fed channel) AC50, cells fed with added oleic acid
[2] = measured here: cell number channel AC50, cells fed with added oleic acid

Structure (SMILES) | cell number change | AC50 [1] | AC50 [2]
CCc1ccccc1OCC(=O)Nc1ccc2c(c1)OCCO2 | -4.27% | 20.6 µM [rising, partial curve] | 
COC(=O)c1sccc1NC(=O)c1cc(OC)cc(OC)c1 | -24.6% | 29.1 µM [falling, single point] | 
CC(C)(C)C(=O)/C=c1\[nH]c(=O)/c(=C\c2ccccc2F)s1 | 16.4% |  | 
O=S(=O)(c1ccc2ccccc2c1)N1CCN(CCO)CC1 |  | 6.51 µM [falling, single point] | 
Cc1cc2c(N)cccc2nn1 | 1.35% | 4.61 µM [falling, single point] | 
O=C(NCc1cccnc1)c1cc2ccccc2oc1=O |  | 6.51 µM [rising, single point] | 2.31 µM [rising, partial curve]
COc1cccc(C(=O)OCc2cc(=O)oc3c(C)c(C)ccc23)c1OC | 14.5% | 5.8 µM [falling, single point] | 
O=C(OCC(=O)N(C1CCCCC1)C1CCCCC1)c1ccco1 | 12.3% | 29.1 µM [rising, single point] | 
COc1cccc(/C(O)=C2/C(=O)C(=O)N(CCCN3CCOCC3)C2c2ccncc2)c1 (centres undefined) | -40% |  | 20.6 µM [falling, single point]
Cc1cc(C)nc(SCc2ccccc2C#N)n1 | 5.78% | 0.461 µM [rising, full curve] | 0.00461 µM [rising, full curve, poor fit]
CN(C)c1ccc(/C=N/NC(=O)c2nonc2N)cc1[N+](=O)[O-] | 16.1% | 6.51 µM [falling, single point] | 
Cc1ccc(OCCN2C(=O)c3ccccc3C2=O)cc1 | 20.2% |  | 
CCOc1ccc(CN(C)CC(=O)Nc2cccc(C)c2)cc1OC | 0.407% | 2.31 µM [rising, partial curve] | 4.61 µM [rising, single point]
COc1ccc(OC)c(NC(=O)c2cnn(-c3ccccc3)c2C)c1 | 2.75% | 5.8 µM [rising, single point] | 
Cc1ccc(S(=O)(=O)N2CCOCC2)cc1C(=O)OCC(=O)N1c2ccccc2NC(=O)C1(C)C | 40.2% | 14.6 µM [rising, partial curve] | 7.31 µM [rising, partial curve]
CCC1CCCCN1C(=O)CSc1nc(N)c(NC(=O)c2ccc(OC)c(OC)c2)c(=O)[nH]1 (centres undefined) |  |  | 5.8 µM [falling, single point]
Cn1c(CNC2CCCCC2)nc2ccccc21 | 3.26% | 6.51 µM [rising, single point] | 
Cc1ccc(CC(=O)Nc2nc3ccccc3[nH]2)cc1C | 20.9% | 29.1 µM [falling, single point] | 
O=C(Nc1ccccc1-c1ccccc1)C1CCCC1 |  | 29.1 µM [rising, partial curve] | 
Cc1ccccc1NC(=O)CN1CCN(C)CC1 | -15.3% |  | 

Single records, from the list above:
Cn1c(CNC2CCCCC2)nc2ccccc21 reads cell number change: 3.26%; AC50 [1]: 6.51 µM [rising, single point]
Cc1ccc(CC(=O)Nc2nc3ccccc3[nH]2)cc1C reads cell number change: 20.9%; AC50 [1]: 29.1 µM [falling, single point]
O=C(Nc1ccccc1-c1ccccc1)C1CCCC1 reads AC50 [1]: 29.1 µM [rising, partial curve]

Next results:

Structure (SMILES) | cell number change | AC50 [1] | AC50 [2]
Cc1cccc(-n2[nH]c3c4c(ccc3c2=O)C(=O)c2ccccc2C4=O)c1 | -15.6% | 2.91 µM [falling, full curve, poor fit] | 
NCCCCCc1nnc(SCC(=O)Nc2cccc(Cl)c2)o1 | -8.8% |  | 
COc1ccc(CCNC(=O)CSc2nnnn2-c2ccccc2OC)cc1OC | -12.9% |  | 
CCSc1nnc(NC(=O)C2CC(=O)N(Cc3ccc(C)cc3)C2)s1 (centres undefined) | -37.9% |  | 1.03 µM [falling, full curve, poor fit]
CCCCC(C(=O)O)C(C)CC(=O)Nc1ccn(-c2ccccc2)n1 (centres undefined) | 20.4% |  | 
CC(=O)C(Cc1ccccc1)NC(=O)CN1CCN(Cc2ccccc2)CC1 (centres undefined) | -20.9% |  | 
CCOC(=O)CC(=O)NC(CC(=O)OC)c1ccc(C(C)C)cc1 (centres undefined) | -7.3% | 32.6 µM [falling, single point] | 
COc1ccc(-c2nnc3n2N=C(c2cccc(Br)c2)CS3)cc1OC | -10.2% | 0.92 µM [rising, partial curve] | 
O=C1C2CCCCN2C(=O)N1CCCCN1CCN(c2cccc(Cl)c2)CC1 (centres undefined) | 8.2% | 25.9 µM [falling, single point] | 
CC1(C)CC(=O)C=C(NC2CCCCCC2)C1 | 0.325% | 1.3 µM [rising, full curve] | 
O=c1cc2n(c(=O)[nH]1)CCC1=C2CCCC1 | -16.4% | 0.326 µM [falling, full curve, poor fit] | 0.0366 µM [falling, full curve, poor fit]
CCCNC(=O)NC(=O)COc1ccc2oc3ccccc3c2c1 | 27.2% |  | 0.731 µM [rising, full curve, poor fit]
COc1ccc2nc(NC(=O)C34CC5CC(CC(NC(C)=O)(C5)C3)C4)sc2c1 | 8.67% | 6.51 µM [rising, single point] | 
O=C(COC(=O)C1CC2CCCC(C1)C2=O)NNC(=O)c1ccccc1Br (centres undefined) | -22.5% | 0.146 µM [rising, full curve, poor fit] | 
O=C(CCNS(=O)(=O)c1cccc2nsnc12)N1CCN(c2ccccn2)CC1 |  | 4.11 µM [rising, full curve, poor fit] | 2.06 µM [rising, partial curve]
CC(C)(C)c1ccccc1OCCCCCn1ccnc1 | -37.6% | 17.8 µM [falling, single point] | 7.94 µM [falling, partial curve, poor fit]
NS(=O)(=O)c1ccc(NC(=S)Nc2ccc(OCc3ccccc3)cc2)cc1 | -14% | 0.461 µM [falling, partial curve, poor fit] | 
COc1ccc(S(=O)(=O)Nc2ccc(Oc3ncccn3)c(Cl)c2)cc1 |  | 0.731 µM [rising, full curve, poor fit] | 
CCn1ccnc1CN(C)Cc1cn(-c2ccccc2)nc1-c1ccc(OC)cc1F | 34.7% |  | 3.66 µM [rising, partial curve, poor fit]
COc1ccccc1CNC(=O)C1CCN(C(=O)N(C)C)CC1 | 10.8% | 0.116 µM [rising, full curve, poor fit] | 
